Reference: PubChem BioAssay AID1794844 (National Center for Advancing Translational Sciences (NCATS), 2023)
Fewer than 10 of roughly 2,800 compounds were called active. Inconclusive results (about 7%) are left out. Calls come from the whole dose curve; as a rule, active = well fitted inhibition curve with a large enough effect; inconclusive = small, poorly fitted or top-dose-only effect; inactive = no such curve, though single readings can be large or run the other way. Some of the results follow.

By UniProt entry, the sequences of proteins in these tests, tags left out. Where a name states a change or a piece, a line headed by the entry shows the natural chain unless it says otherwise.
UniProt C7C422: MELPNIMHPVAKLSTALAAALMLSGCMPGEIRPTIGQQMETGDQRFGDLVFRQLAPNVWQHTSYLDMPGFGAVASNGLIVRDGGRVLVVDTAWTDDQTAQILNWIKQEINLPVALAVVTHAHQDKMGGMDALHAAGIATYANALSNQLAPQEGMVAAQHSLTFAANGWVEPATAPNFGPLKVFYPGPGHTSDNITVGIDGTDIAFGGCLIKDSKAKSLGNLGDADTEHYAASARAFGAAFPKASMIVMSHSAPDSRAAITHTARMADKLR

molecular target: Metallo-beta-lactamase type 2 (Klebsiella pneumoniae) (UniProt C7C422); assay: qHTS to identify inhibitors of the New Delhi Metallo-beta-lactamase (NDM): Nitrocefin screen against the machine-based learning selections.; note: % of control where 0% means no effect; details: NDM-1 enzyme, nitrocefin hydrolysis, absorbance 485 nm; activity, negative = inhibition: at the top concentration
Outline: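 Hydrolysis by 2 nM NDM-1 was followed by absorbance after >30 min compound preincubation in HEPES pH 7.0 buffer with 1 uM Zn2SO4. For nitrocefin (16.7 uM, 15 min, 485 nm) and meropenem (50 uM, 30 min, 300 nm), each substrate ran on separate plates.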

Compound | activity, negative = inhibition
Cn1cccc1C(=O)N1CC[C@H](CO)[C@H](NC(=O)C2CC2)C1 | inactive: 2.72%
CN1[C@H](C(=O)O)C[C@H](C(=O)NCC(C)(C)CO)[C@@H]1c1cccc(F)c1F | inactive: -13.8%
Cc1cc(C)n(Cc2cccc(C(=O)N3CCC4(CC3)[C@H](O)C[C@@H]4O)c2)n1 | inactive: -0.0191%
CC1(C(=O)NCCCn2ccnc2)COCc2cnc(Nc3ccccc3)nc21 (centres undefined) | inactive: 1.07% [at 57.5 µM]
COCc1ccc(C(=O)N[C@@H]2COCC[C@@H]2OCc2c(C)noc2C)o1 | inactive: -0.0925%
COc1ccc(CN2CCNc3cnc(Nc4ccccc4)cc3C2)cn1 | inactive: 6.19% [at 57.5 µM]
O=C1NCCOCCN(C(=O)NCCc2ccccc2)[C@@H]2CCCC[C@H]12 | inactive: 16.9%
Cc1ccc(-c2ccc3nnc(CNC(=O)Cc4cccc(F)c4)n3n2)cc1 | inactive: 1.2%
CS(=O)(=O)NC1CCN(c2nc(-c3cccnc3)nc3c2CNC3)CC1 | inactive: -10.4%
CNC(=O)c1cccc(-c2cnc(Nc3ccccc3)c3c2CCO3)c1 | inactive: -9.22% [at 57.5 µM]
Cc1ccc(S(=O)(=O)N2CCCC(Cn3c(C)nc4cccnc43)C2)c(C)c1 (centres undefined) | inactive: -2.96%
NC(=O)c1cccc(-c2ccc3c(n2)CN(Cc2ccc(F)cc2)C(=O)CO3)c1 | inactive: 6.52% [at 57.5 µM]
C[C@H]1[C@@H]2[C@@H](O)C([C@H](C)C(=O)N(C)CCC#N)CC[C@@]2(C)CC[C@@H]1NS(C)(=O)=O (some centres undefined) | inactive: -7.25% [at 57.5 µM]
Oc1ccccc1CN1CCNc2cc(-c3ccccc3)ncc2C1 | inactive: 13.3% [at 57.5 µM]
Cc1cc(C)c(CNC(=O)c2nc(-c3ccccc3)cc3[nH]ccc23)c(=O)[nH]1 | inactive: 46.5% [at 57.5 µM]
COc1cc(C(=O)N2C[C@@H](C)[C@@](C)(O)C2)ccn1 | inactive: 7.5%
COCC(=O)N1CC[C@@H](CC(=O)O)[C@@H](CC2=NCCc3cc(OC)ccc32)C1 | inactive: -8.79% [at 57.5 µM]
O=C(CCc1cccnc1)N1CCCC(CCc2cccc(F)c2)C1 (centres undefined) | inactive: -11.5%
NC(=O)CN1CCC(c2nc(-c3ccc4nc[nH]c4c3)no2)CC1 | inactive: -1.91%
O=C(NCc1cccc(Cl)c1)c1cc2c(s1)CCN(C(=O)c1ccccc1)C2 | inactive: -5.13%
Cc1ccsc1[C@@H]1CCN(Cc2cccn2-c2cccnc2)C[C@H]1O | inactive: -2.87%
CCOC(=O)C1=C(C)N=C2SC=C(CC(=O)N3CCCCC3)N2C1c1cccc(OC)c1 (centres undefined) | inactive: -9.57%
CC(C)C[C@@H](NC(=O)C1=C[C@@H](NC(=O)c2ccco2)[C@@H](O)[C@H](O)C1)C(N)=O | inactive: 13.3% [at 57.5 µM]
CC(C)NC(=O)[C@@H]1C[C@H](N)CN1C(=O)c1ccc(-n2cnnn2)cc1 | inactive: 11.7%

Compound | activity, negative = inhibition
COc1ccc(S(=O)(=O)N2C[C@@H](F)[C@@H](OCc3nc4ccccc4o3)C2)cc1 | inactive: -4.04% [at 57.5 µM]
N#Cc1cccc(NC(=O)O[C@@H]2CO[C@H]3[C@@H]2OC[C@@H]3n2nnnc2-c2ccc(-c3ccccc3)cc2)c1 | inactive: -3.25%
COc1ccc(-c2noc([C@@H]3Cc4nc[nH]c4CN3Cc3ccc(NC(C)=O)cc3)n2)cc1 | inactive: -3.71%
N#Cc1cccc(C(=O)Nc2ccc([C@H]3OCC(=O)N(C4CCOCC4)[C@@H]3CO)cc2)c1 | inactive: 2.18%
Oc1ccccc1CN1CCNc2cc(Nc3cccnc3)ncc2C1 | inactive: 4.53% [at 57.5 µM]
COc1ccccc1-c1ccc2ncc(Nc3cccc(O)c3)n2n1 | inactive: -12.3% [at 57.5 µM]
O=C(Cc1cccc(F)c1)NCc1nnc2ccc(-c3ccc(Cl)cc3)nn12 | inactive: -3.28%
CC(C)NC(=O)N[C@H]1CCN2C(=O)c3cc(-c4ccccc4)ccc3NC(=O)[C@H]12 | inactive: -11.1% [at 57.5 µM]
CCO[C@H]1CN(C(=O)CCCc2nc(-c3ccccc3OC)no2)C[C@@H]1O | inactive: 0.258%
O=C(NC1CCN(c2cc(-c3cccs3)[nH]n2)C1)c1cccc(OC(F)(F)F)c1 (centres undefined) | inactive: 10.1%
CCc1ncc(C(=O)N2CCN(c3ccc(Cl)c(Cl)c3)CC2)cn1 | inactive: -4.54%
COc1ccc(S(=O)(=O)N2CC[C@H](NC(=O)c3ccncc3)C[C@H]2C(=O)N[C@@H](CC2CCCCC2)C(N)=O)cc1 | inactive: 9.28%
O=C(O)[C@H]1C[C@H](C(=O)NCc2ccccn2)CN(C(=O)CC2CCCC2)C1 | inactive: -15.3%
CCc1nc2c(c(-c3ccc(Cl)cc3)n1)CCN(Cc1ccc(C#N)cc1)CC2 | inactive: 57%
Cc1cccc(O[C@H]2COCCN(C(=O)c3ccc(C(F)(F)F)cc3)C2)n1 | inactive: -2.73% [at 57.5 µM]
Cc1ncsc1C1N(C2CCN(Cc3cn(C)c4ccccc34)CC2)C(=O)C12CCCC2 (centres undefined) | inactive: 4.73%
Cc1cn(CC(=O)NC2CCOC3(CCOCC3)C2)c(=O)[nH]c1=O (centres undefined) | inactive: -17.7%
Cc1cc(OCCN2CCOCC2)c(C)c2c1CC[C@@H]([C@H](C)C(=O)NC(C)(C)C)C2 | inactive: -1.3% [at 57.5 µM]
Cc1cc(C[C@@H]2COC[C@@H]2NC(=O)CCCn2cnc3ccccc3c2=O)on1 | inactive: 0.692%
Cc1cc(S(=O)(=O)NCC2CCOCC2)ccc1F | inactive: 3.46%
O=C(CCc1ccc2c(c1)OCO2)N[C@H](c1cccs1)C1CC(O)C1 (some centres undefined) | inactive: 4.14%
CC1=C[C@@H](CO)[C@H](C(C)C)C[C@H]1Cc1nnc(-c2ccc(N(C)C)cc2)o1 | inactive: -0.177% [at 57.5 µM]
C[S+](=O)([O-])c1cccc(NC(=O)Cc2c[nH]c3ncc(-c4cccnc4)cc23)c1 | inactive: 2.15% [at 57.5 µM]
Cc1cccc2c1nc1n2[C@@H](CNC2CCCCC2)COC1 | inactive: -5.68% [at 57.5 µM]

Compound | activity, negative = inhibition
O=C(COc1ccccc1)N1CCOC[C@H](Oc2ccccc2)C1 | inactive: -5.52% [at 57.5 µM]
CCc1cc(=O)n(CC(=O)Nc2ccc(C(C)C)cc2)c(N2CCOCC2)n1 | inactive: 4.41%
O=C(c1ccc(Oc2ccccc2)cc1)N1CCNc2cnc(Nc3cccnc3)nc2C1 | inactive: 0.502%
O=C(NC(C(=O)N1CCCCC1)C1CCN(C(=O)CCc2ccccc2)CC1)c1cccs1 (centres undefined) | inactive: -6.05%
c1cncc(CN2CC[C@H](c3nc4ccccc4[nH]3)C2)c1 | inactive: -0.866% [at 76.7 µM]
c1ccc(-c2[nH]nc3ncc(-c4cn[nH]c4)nc23)cc1 | inactive: 5.46% [at 76.7 µM]
Cc1ccc2nc([C@H]3CCN(C4CCC4)C3)[nH]c2c1 | inactive: 7.28% [at 76.7 µM]
c1cc(-c2n[nH]c(CNC3CCC4(CCNCC4)CC3)n2)ccn1 | inactive: -24.3%
O=C(Nc1ccccc1)c1ccc(-c2cccc3c2CCNC3)o1 | inactive: -3.33%
O=C1Nc2ccc(-c3ccc4c(c3)OCO4)cc2C(=O)N2CCN(C(=O)C3CCCC3)C[C@@H]12 | inactive: 1.59%
COc1ccc2[nH]c3c(c2c1)CCN(C)C31CCN(C(=O)c2ccc3ncccc3c2)CC1 | inactive: 3.35%
CC(=O)N1CCN([C@H]2[C@@H]3OC[C@@H](O3)[C@@H](NCc3cnc4ccccc4c3)[C@@H]2O)CC1 | inactive: 1.2% [at 57.5 µM]
O=C(NC[C@H]1O[C@H](Cc2cc(-c3ccc(F)cc3)on2)CC[C@@H]1O)c1ccncc1 | inactive: -8.95% [at 57.5 µM]
O=C(C[C@@H]1CCNC[C@@H]1Cc1cc(CC2CCCCC2)on1)NCc1ccco1 | inactive: -7.6% [at 57.5 µM]
Cc1noc2c(-c3cccnc3)cc(-c3cccs3)nc12 | inactive: -1.29% [at 57.5 µM]
O=C(NCCc1cnc[nH]1)c1nc(-c2ccccc2)cc2[nH]ccc12 | inactive: -8.19% [at 57.5 µM]
Cc1ccccc1-c1cnc2[nH]cc(CC(=O)NC3CC3)c2c1 | inactive: 5.23% [at 57.5 µM]
CCN(CC)C(=O)[C@@H]1CCC[C@@H](NC(=O)c2cncnc2)CN(C)C(=O)C1 | inactive: -10.9% [at 57.5 µM]
O=C(NCCc1ccccn1)c1nc(-c2ccccc2)cc2[nH]ccc12 | inactive: -3.53% [at 57.5 µM]
NCCN1C(=O)CC[C@H]2CN(C(=O)C3(c4ccccc4)CC3)CC[C@H]21 | inactive: -19.8%
COc1ccc(CNC(=O)CC[C@H]2CNC(=O)[C@@H]3[C@@H](CCN3C(C)C)N2C)cc1 | inactive: 5.66% [at 57.5 µM]
CN(C)c1cccc(-c2cnc(Nc3cccc(N[S+](C)(=O)[O-])c3)c3c2CCO3)c1 | inactive: -8.1% [at 57.5 µM]
CN1C[C@H](NCc2nccn2C)CCC[C@@H](C(=O)NCc2cc(F)cc(F)c2)CC1=O | inactive: -6.36% [at 57.5 µM]
CC(C)(O)C#Cc1ccc(CN2CCC(CO)(CCCc3ccccc3)CC2)s1 | inactive: -4.2%

Compound | activity, negative = inhibition
Cn1c(CN2CCOCC2)nnc1C1CCCN(C(=O)CNC(N)=O)C1 (centres undefined) | inactive: 4.77%
Oc1ccccc1CN1CCOC[C@H]1c1ncc(-c2cccc(Cl)c2)[nH]1 | inactive: -3.86% [at 57.5 µM]
CN(C)c1cccc(NC(=O)Cc2c[nH]c3ncc(-c4ccccc4)cc23)c1 | inactive: 0.958% [at 57.5 µM]
CCNC(=O)[C@@H]1C[C@@H](NC(=O)c2csc(C)c2CC)CN1C1CCCC1 | inactive: -2.27%
Cc1ccc(CN2C(=O)[C@@H]3C[C@@H](O)CN3C3(CN(Cc4ccncc4)C3)C2=O)o1 | inactive: -5.19% [at 57.5 µM]
COc1ccc(-c2nc3c(c(-c4ccccc4)n2)CN(C(=O)c2cccc(Cl)c2)CC3)cc1 | inactive: 3.85%
Cc1nccnc1CN1CCC2(CC1)CCN(Cc1ncc[nH]1)CC2CO (centres undefined) | inactive: -0.514%
Cn1c([C@H]2CCN(C(=O)COc3ccccc3)C2)nc2ccccc21 | inactive: 0.473% [at 57.5 µM]
O=C(Cc1c[nH]c2ncc(-c3ccccc3C(F)(F)F)cc12)NCc1cccnc1 | inactive: 6.71% [at 57.5 µM]
Cc1ccc2nc(C3CCCN(Cc4ccc(-c5cncnc5)cc4)C3)[nH]c(=O)c2c1 (centres undefined) | inactive: 2%
COc1ccc(C2Cn3cnc(C(=O)N4CCC(C(=O)Nc5ccc(C)cc5C)CC4)c3CO2)cc1 (centres undefined) | inactive: -4.23%
O[C@@H]1CC(CNCc2cccc(Cl)c2)(COc2ccccc2)C[C@@H]1O (some centres undefined) | inactive: -2.73% [at 57.5 µM]
CC1=C[C@@H](CN2CCN(c3ccccn3)CC2)[C@H](C(C)C)C[C@H]1Cc1nnc(-c2ccccc2)o1 | inactive: 2.88%
CC[C@@]1(O)CCN(C(=O)c2cccc(CCC(C)(C)O)c2)C[C@H]1O | inactive: 8.67%
O=C(Cc1c[nH]c2ncc(-c3cccc(CO)c3)cc12)NCc1cccnc1 | inactive: 2.11% [at 57.5 µM]
CN(CCO)C[C@@H]1CN(C(=O)c2nc3ccccc3[nH]c2=O)C[C@@H]1CO | inactive: -4.62%
CN1[C@@H](CCC(=O)N2CCN(c3ccccc3)CC2)CNC(=O)[C@@H]2[C@H]1CCN2CC(C)(C)C | inactive: 9.96%
O=C(N[C@H](c1cccs1)C1CC(O)C1)C1CCN(C2CCOCC2)CC1 (some centres undefined) | inactive: 2.3%
COc1ccc(C(=O)N[C@H](Cc2ccccn2)C2CC(O)C2)cc1F (some centres undefined) | inactive: -4.5%
Cc1noc2c(Nc3ccc(C(N)=O)cc3)cc(-c3ccc(F)cc3)nc12 | inactive: -6.6% [at 57.5 µM]
O=C(c1ccc2nccnc2c1)N1CCC2(CC1)Nc1ccccc1NC2=O | inactive: -1.49%
c1ccc(CN2CC(CNc3cccnc3)C3(C2)CN(c2ccccc2)C3)cc1 (centres undefined) | inactive: 4.4% [at 57.5 µM]

Four entries out of the list, ordered by number of heavy atoms, ascending:
Compound | activity, negative = inhibition
O=C(c1ccc2nccnc2c1)N1CCC2(CC1)Nc1ccccc1NC2=O | inactive: -1.49%
Cc1ccc2nc(C3CCCN(Cc4ccc(-c5cncnc5)cc4)C3)[nH]c(=O)c2c1 (centres undefined) | inactive: 2%
COc1ccc(-c2nc3c(c(-c4ccccc4)n2)CN(C(=O)c2cccc(Cl)c2)CC3)cc1 | inactive: 3.85%
CC1=C[C@@H](CN2CCN(c3ccccn3)CC2)[C@H](C(C)C)C[C@H]1Cc1nnc(-c2ccccc2)o1 | inactive: 2.88%
